Data: PubChem BioAssay AID540256 (National Center for Advancing Translational Sciences (NCATS), 2011)
Values joined by “and” are separate entries in the source; they are usually repeats but may differ in a detail not shown here. Equal entries are not always repeated. Among all 300,000 compounds or so, about 3,700 (1.2%) were called active. Inconclusive results, whose numbers are uncertain, are shown with a selection of clear calls. Calls follow the shape of the full dose curve; tested in HEK293 cells. Potencies of inconclusive entries are doubtful fits and often do not repeat.

assay: qHTS for Inhibitors of binding or entry into cells for Lassa Virus; details: Lassa virus pseudotype entry inhibition, cell reporter; series mostly up to 37.9 µM; also: nearly all actives have a fitted effect of over 50% in size
Potency is read from the fitted curve at half-maximal effect.

**Q.** With `CCS(=O)(=O)c1ccc(O)c(NC(=O)Nc2ccc(C(C)(C)C)cc2)c1` as the compound, how does the Potency read?
**A.** inconclusive: 5.62 µM [inhibitor, full curve, poor fit]

**Q.** For `COc1ccccc1N/C(N)=N/c1nc(CSc2ccc(C)cc2)cc(=O)[nH]1`, which Potency is on record?
**A.** inactive

**Q.** Which Potency does the source give for `O=C(CC(=O)Nc1cccnc1)Nc1cccnc1` here?
**A.** inconclusive: 3.98 µM [inhibitor, single point]

**Q.** Which Potency does the source give for `C=C(C)CSc1nc2sc3c(c2c(=O)n1-c1ccc(C)cc1)CCN(C)C3` here?
**A.** inconclusive: 12.6 µM [inhibitor, partial curve, poor fit]

**Q.** With `Cc1cccc(C(=O)Nc2cccc(S(=O)(=O)NCc3ccco3)c2)c1` as the compound, how does the Potency read?
**A.** inconclusive: 10 µM [inhibitor, partial curve]

**Q.** Which Potency does the source give for `O=C(NCc1ccncc1)C1CCN(S(=O)(=O)c2cc(Cl)ccc2Cl)CC1` here?
**A.** inactive

**Q.** Which Potency does the source give for `COCc1nn2c(N)c(C#N)cnc2c1-c1ccccc1` here?
**A.** inactive

**Q.** For `CCCCCCCC(=O)N/N=C/c1ccc(Br)cc1`, which Potency is on record?
**A.** inconclusive: 18.3 µM [inhibitor, single point]

**Q.** For `Cc1cccc(NC(=O)COc2ccc(-c3nn(C)c(=O)c4ccccc34)cc2)c1`, which Potency is on record?
**A.** inactive and inconclusive: 8.91 µM [inhibitor, partial curve]

**Q.** For `CC(=O)N1CCn2c3ccc(C)cc3c3cccc1c32`, which Potency is on record?
**A.** inactive

**Q.** For `O=C(NCCC(=O)N(Cc1ccco1)Cc1cccs1)c1ccc([N+](=O)[O-])cc1`, which Potency is on record?
**A.** inconclusive: 5.01 µM [inhibitor, single point]

**Q.** For `O=C(CCNC(=O)Cn1ccc2ccccc2c1=O)NCc1ccc(F)cc1Cl`, which Potency is on record?
**A.** inactive

**Q.** With `CCOc1ccc(CCNC(=O)CCCc2nnc3n(CC)c(=O)c4sccc4n23)cc1OCC` as the compound, how does the Potency read?
**A.** inactive

**Q.** Which Potency does the source give for `O=[N+]([O-])c1ccc(N=Nc2ccc(O)cc2O)cc1` here?
**A.** active: 10 µM

**Q.** For `O=C(NCCc1ccccc1)c1ccc(Cl)nc1`, which Potency is on record?
**A.** inconclusive: 5.17 µM [inhibitor, full curve, poor fit]

**Q.** For `Cc1ccc(C(=O)CSc2nnc(-c3ccco3)n2C)cc1`, which Potency is on record?
**A.** inactive

**Q.** For `Cc1ccc(S(=O)(=O)N(C)c2ccc(OCC(=O)NCc3ccco3)cc2)cc1`, which Potency is on record?
**A.** inconclusive: 29.1 µM [inhibitor, single point]

**Q.** With `Cc1ccc(CN(Cc2ccco2)C(=S)NCC(=O)O)cc1` as the compound, how does the Potency read?
**A.** inconclusive: 0.891 µM [activator, single point]

**Q.** Which Potency does the source give for `Cc1cccc(N2CCN(C(=O)N3CCCCC3)CC2)c1C` here?
**A.** inconclusive: 35.5 µM [inhibitor, single point]

**Q.** Which Potency does the source give for `Cc1nc2cc(NC(=O)c3ccc([N+](=O)[O-])s3)ccc2s1` here?
**A.** inconclusive: 22.4 µM [inhibitor, single point]

**Q.** With `Cc1cccc(NC(=O)Cn2cc(C(=O)c3ccco3)c3ccccc32)c1` as the compound, how does the Potency read?
**A.** inconclusive: 22.4 µM [inhibitor, partial curve, poor fit]

**Q.** Which Potency does the source give for `COc1ccc(-c2oc3ncn(CCN4CCOCC4)c(=N)c3c2-c2ccc(OC)cc2)cc1` here?
**A.** inconclusive: 3.66 µM [inhibitor, full curve, poor fit]

**Q.** Which Potency does the source give for `CCC12CN3CCN(CC(C3)C1O)C2` (stereo unspecified) here?
**A.** inconclusive: 0.259 µM [inhibitor, single point]

**Q.** Which Potency does the source give for `C/C(=N/NC(=O)C(O)(c1ccccc1)c1ccccc1)c1ccc([N+](=O)[O-])o1` here?
**A.** inconclusive: 1 µM [inhibitor, single point]

**Q.** For `CN(CC(=O)Nc1ccc(S(=O)(=O)N2CCCC2)cc1)Cc1ccc(Cl)cc1`, which Potency is on record?
**A.** inconclusive: 9.2 µM [inhibitor, partial curve]

**Q.** With `Cc1cccc(NC(=O)CCn2cnnn2)c1C` as the compound, how does the Potency read?
**A.** inactive

**Q.** With `CCOC(=O)c1sc(NC(=O)c2cccc(S(=O)(=O)N3c4ccccc4CC3C)c2)cc1C` (stereo unspecified) as the compound, how does the Potency read?
**A.** inconclusive: 0.731 µM [inhibitor, partial curve, poor fit]

**Q.** Which Potency does the source give for `C[C@]12CCC3C(CC[C@H]4C[C@H](O)CC[C@]34C)C1CC[C@@H]2C(=O)CO` (stereo partly specified) here?
**A.** inconclusive: 8.2 µM [inhibitor, partial curve, poor fit]

**Q.** For `COC(=O)c1cccc(Nc2ccc([N+](=O)[O-])cn2)c1`, which Potency is on record?
**A.** inconclusive: 11.2 µM [activator, partial curve, poor fit]

**Q.** For `CCOC(=O)C(C(C)=O)C(c1ccc(OCCC(C)C)cc1)C(C(C)=O)C(=O)OCC` (stereo unspecified), which Potency is on record?
**A.** inconclusive: 20.6 µM [inhibitor, single point]

**Q.** For `N=c1c(C(=O)NCCN2CCOCC2)cc2c(=O)n3ccccc3nc2n1Cc1ccc(F)cc1`, which Potency is on record?
**A.** inconclusive: 22.4 µM [inhibitor, partial curve, poor fit]

**Q.** With `O=C(OCC(=O)N1CCCC1=O)c1cc(Cl)ccc1O` as the compound, how does the Potency read?
**A.** inconclusive: 1.12 µM [activator, full curve]

**Q.** For `COc1cccc(C(=O)NC2=NCCS2)c1`, which Potency is on record?
**A.** inactive

**Q.** Which Potency does the source give for `COc1ccccc1C(CNC(=O)COc1cc(C)ccc1Cl)N1CCCC1` (stereo unspecified) here?
**A.** inconclusive: 4.47 µM [activator, single point]

**Q.** With `CCC(C)(C)NC(=O)c1cccc(NC(=O)C(C)C)c1` as the compound, how does the Potency read?
**A.** inactive

**Q.** Which Potency does the source give for `CCOC(=O)CSc1nc(-c2ccccc2)nc2ccccc12` here?
**A.** inconclusive: 10.3 µM [activator, partial curve]

**Q.** For `COc1ccccc1Nc1cc(C(=O)NC2CCC(C)CC2)c2ccccc2n1` (stereo unspecified), which Potency is on record?
**A.** inactive

**Q.** With `CCc1ccc(/C(C)=N/NC(=O)CNC(=O)/C=C/c2ccccc2OC)cc1` as the compound, how does the Potency read?
**A.** inactive

**Q.** For `O=C(c1cnn2c(C(F)(F)F)cc(-c3cccs3)nc12)N1CCN(C(c2ccccc2)c2ccccc2)CC1`, which Potency is on record?
**A.** inconclusive: 25.1 µM [inhibitor, single point]

**Q.** With `c1ccc(CC2CCN(C(c3cccs3)c3nnnn3C3CCCC3)CC2)cc1` (stereo unspecified) as the compound, how does the Potency read?
**A.** inconclusive: 32.6 µM [inhibitor, single point]

**Q.** With `O=C(Nc1cccc(Cl)c1)c1ccc2c(c1)CCN2S(=O)(=O)c1ccccc1` as the compound, how does the Potency read?
**A.** inconclusive: 4.47 µM [inhibitor, partial curve, poor fit]

**Q.** Which Potency does the source give for `O=Cc1ccc(OCc2ccccn2)cc1` here?
**A.** inconclusive: 2.59 µM [activator, full curve, poor fit]

**Q.** Which Potency does the source give for `Oc1ccccc1CNc1cccc2cccnc12` here?
**A.** inconclusive: 1.26 µM [inhibitor, single point]

**Q.** Which Potency does the source give for `CSc1nnc(-c2ccc([N+](=O)[O-])cc2)o1` here?
**A.** inconclusive: 6.31 µM [activator, single point]

**Q.** Which Potency does the source give for `CCCCN(CC)C(=O)CSc1c2c(nc3ccc(Cl)cc13)CCCC2` here?
**A.** inactive

**Q.** With `CCOC(=O)C(O)(c1ccc(N(CC)C(=O)COc2ccccc2)cc1)C(F)(F)F` (stereo unspecified) as the compound, how does the Potency read?
**A.** inconclusive: 11.2 µM [inhibitor, partial curve]

**Q.** With `Cc1ccc(C)c(OCC(=O)N/N=C/c2c(C)nn(-c3ccccc3)c2Cl)c1C` as the compound, how does the Potency read?
**A.** inconclusive: 1 µM [inhibitor, partial curve, poor fit]

**Q.** For `N#C/C(=C/c1ccco1)c1nc2ccccc2s1`, which Potency is on record?
**A.** inconclusive: 35.5 µM [inhibitor, single point]

**Q.** Which Potency does the source give for `COC(=O)c1ccccc1NC(=O)CNC(=O)c1ccc(OC)cc1` here?
**A.** inactive

**Q.** For `Cc1cc(C(F)(F)F)nc(-n2cc(-c3ccccc3)nn2)n1`, which Potency is on record?
**A.** inconclusive: 20 µM [inhibitor, single point]

**Q.** Which Potency does the source give for `CCCCS(=O)(=O)/C=C\C=C/S(=O)(=O)CCCC` here?
**A.** active: 11.2 µM

**Q.** For `CCCn1nnc(NC(=O)c2ccc(-c3cccc(Cl)c3)o2)n1`, which Potency is on record?
**A.** inconclusive: 29.1 µM [inhibitor, single point]

**Q.** For `Cn1ccsc1=NC(=O)c1ccc(CS(C)(=O)=O)cc1`, which Potency is on record?
**A.** inactive

**Q.** With `Cc1cccc(C(=O)N2CCC(=O)N(C(COCc3cccc(Cl)c3)Cc3ccccc3)CC2)c1` (stereo unspecified) as the compound, how does the Potency read?
**A.** active: 8.2 µM

**Q.** With `CCOc1ccccc1C(=O)NC(C(=O)N(C)c1c(N)n(Cc2ccccc2)c(=O)[nH]c1=O)C(C)C` (stereo unspecified) as the compound, how does the Potency read?
**A.** inconclusive: 22.4 µM [inhibitor, single point]

**Q.** Which Potency does the source give for `COC(=O)c1ccc(NC(=O)c2ccc(N(C)S(C)(=O)=O)cc2)cc1` here?
**A.** inactive

**Q.** For `CCN(C(=O)C(C)Cl)c1ccccc1` (stereo unspecified), which Potency is on record?
**A.** inactive

**Q.** Which Potency does the source give for `O=C1CCC(C(=O)Nc2cccc3ccccc23)N1` (stereo unspecified) here?
**A.** inconclusive: 35.5 µM [activator, single point]

**Q.** Which Potency does the source give for `CCc1nnc(N/N=C/c2ccccc2Cl)n1N` here?
**A.** inconclusive: 14.6 µM [activator, single point]

**Q.** Which Potency does the source give for `COc1cccc(-c2ccc(SCC(=O)NC3CCCC3)nn2)c1` here?
**A.** inconclusive: 17.8 µM [inhibitor, single point]

**Q.** Which Potency does the source give for `O=C(NNc1cc(C(F)(F)F)nc2ccccc12)Nc1cccc(Cl)c1` here?
**A.** inconclusive: 8.91 µM [inhibitor, partial curve, poor fit]

**Q.** Which Potency does the source give for `Cc1nc(-c2ccc(NC(=O)C3CCCCC3)cc2)cs1` here?
**A.** inconclusive: 5.62 µM [activator, single point]

**Q.** For `NS(=O)(=O)c1ccc2ccccc2c1`, which Potency is on record?
**A.** inactive

**Q.** Which Potency does the source give for `CCOC(=O)c1cnn(-c2ccc(C(=O)Nc3cccc(C(C)=O)c3)cc2)c1N` here?
**A.** inactive

**Q.** Which Potency does the source give for `O=C(Nc1ccccc1F)c1ccc(CSc2ncccn2)cc1` here?
**A.** inconclusive: 25.1 µM [inhibitor, single point]

**Q.** With `c1ccc(OCc2nc3ccccc3s2)cc1` as the compound, how does the Potency read?
**A.** inconclusive: 2.31 µM [activator, partial curve]

**Q.** For `COc1cc(C(=O)N/N=C/c2ccsc2C)cc(OC)c1OC`, which Potency is on record?
**A.** inconclusive: 0.282 µM [inhibitor, partial curve, poor fit]

**Q.** For `CCOc1ccc(S(=O)(=O)N2CCN(CC(O)COc3cccc([N+](=O)[O-])c3)CC2)cc1` (stereo unspecified), which Potency is on record?
**A.** inactive

**Q.** Which Potency does the source give for `C/C(=N/N=C/c1ccccc1O)c1ccccc1O` here?
**A.** inactive

**Q.** With `CCCN(CCC)C(=S)NC(=O)c1ccc(-c2ccccc2)cc1` as the compound, how does the Potency read?
**A.** inconclusive: 29.1 µM [inhibitor, single point]

**Q.** Which Potency does the source give for `COc1ccccc1CN1C(=O)CN(C2CCCCCC2)C(=O)C1c1ccc(F)cc1` (stereo unspecified) here?
**A.** inconclusive: 35.5 µM [inhibitor, single point]
